Values quoted from earlier work in patent publication US20080139517A1, “Methods of treating age associated memory impairment (AAMI), mild cognitive impairment (MCI), and dementias with cell cycle inhibitors” (priority 2002, published 2008).
At least one structure is not confirmed: it was looked up by name or label, or the drawing left a doubt.

Test system: neuronal death
Details: by inhibition of NO induced activation of p38 MAP kinase

For `CN(C)c1ccc(O)c2c1C[C@H]1C[C@H]3[C@H](N(C)C)C(O)=C(C(N)=O)C(=O)[C@@]3(O)C(O)=C1C2=O` [minocycline], which “nitric oxide induced neuronal death” value is on record?
The value was “inhibition”.
